“And” between values parts separate entries of the source, which are not always exact repeats. Equal entries are not always repeated. Where two headings read alike, the source gives them in different places.
What was measured:
[1] = for recoveries: Example 8 (LSD) procedure applied to other drugs
[2] = urine
[3] = Example 4A, SDVB, urine, elution hexane:ethyl acetate (3:1)
[4] = Example 9A, SDVB, urine, wash KH2PO4, elution CH2Cl2:isopropanol (80:20), HPLC
[5] = Example 9C, SDVB, urine, elution CH2Cl2:isopropanol:NH4OH (78:20:2), HPLC
[6] = Example 9D, SDVB, urine, elution methanol, HPLC
[7] = Example 4B, SDVB, urine, wash buffer:acetonitrile (9:1), elution acetone:CHCl3 (1:1)
[8] = Example 7, SDVB, urine, wash buffer, elution acetone:CHCl3 (1:1)
[9] = Example 10 general procedure, SDVB, urine, wash water or 5% aqueous methanol, elution ethyl acetate

Structure (SMILES): C=CCC1(c2ccccc2)C(=O)NC(=O)NC1=O [Alphenal]
- Percent Recovery [1, 3]: 105%

Structure (SMILES): CN(C)CCC=C1c2ccccc2CCc2ccccc21 [Amitriptyline]
- Percent Recovery [1, 4]: 100%
- Percent Recovery [1, 5]: 95%
- Percent Recovery [1, 6]: 77%
- Percent Recovery ([1]; urine): 92

Structure (SMILES): CCC1(CCC(C)C)C(=O)NC(=O)NC1=O [Amobarbital]
- Percent Recovery ([1]; urine): 93 and 90

Structure (SMILES): CC(N)Cc1ccccc1 (stereo not shown) [Amphetamine]
- Percent Recovery ([1]; urine): 92 and 85

Structure (SMILES): CN1[C@H]2CC[C@@H]1[C@@H](C(=O)O)[C@@H](OC(=O)c1ccccc1)C2 [Benzoylecgonine]
- Percent Recovery ([1]; Example 2A, SDVB, urine, elution acetonitrile:n-butylchloride (3:7)): 100%
- Percent Recovery ([1]; Example 2B, SDVB, urine, elution acetone:CHCl3 (1:1)): 99%
- recoveries [1]: 100%
- Percent Recovery ([1]; urine): 74

Structure (SMILES): CCC(C)C1(CC)C(=O)NC(=O)NC1=O (stereo not shown) [Butabarbital]
- Percent Recovery [1, 3]: 91%
- Percent Recovery [1, 7]: 100%
- Percent Recovery ([1]; urine): 90

Structure (SMILES): CNC1=Nc2ccc(Cl)cc2C(c2ccccc2)=[N+]([O-])C1 [Chlorodiazepoxide]
- Percent Recovery [1, 8]: 100%
- Percent Recovery ([1]; urine): 100

Structure (SMILES): COC(=O)[C@H]1[C@@H](OC(=O)c2ccccc2)C[C@@H]2CC[C@H]1N2C [Cocaine]
- approximate minimum detection limit ([2]; Examples 2A-B, for drug of group with highest contamination): 96 ng/mL

Structure (SMILES): COc1ccc2c3c1O[C@H]1[C@@H](O)C=C[C@H]4[C@@H](C2)N(C)CC[C@@]341 [Codeine]
- Percent Recovery ([1]; Example 6A, SDVB, unhydrolyzed urine, elution acetone:CHCl3 (7:3)): 85%
- Percent Recovery ([1]; Example 6B, SDVB, unhydrolyzed urine, elution MeOH with 2% NH4OH): 98%
- Percent Recovery ([1]; Example 6C, SDVB, unhydrolyzed urine, elution acetone:CHCl3 (1:1)): 95%
- Percent Recovery ([1]; Example 6D, SDVB, unhydrolyzed urine, elution 2% NH4OH in acetone:CHCl3 (7:3)): 77%
- recovery ([1]; Example 6E method omitting the hydrolysis step, free opiates): 90%
- Percent Recovery ([1]; Example 6E, SDVB, hydrolyzed urine, pH 6, elution n-BuCl:ethyl acetate (1:1) with 1% NH4OH): 82%
- Percent Recovery ([1]; Example 6F, SDVB, hydrolyzed urine, pH 8.4): 92%
- Percent Recovery ([1]; urine): 85

Structure (SMILES): CNCCCN1c2ccccc2CCc2ccccc21 [Desipramine]
- Percent Recovery [1, 4]: 98%
- Percent Recovery [1, 5]: 105%
- Percent Recovery [1, 6]: 85%
- Percent Recovery ([1]; urine): 104

Structure (SMILES): CN(C)CCC=C1c2ccccc2COc2ccccc21 [Doxepin]
- Percent Recovery [1, 4]: 94%
- Percent Recovery [1, 5]: 80%
- Percent Recovery [1, 6]: 69%
- Percent Recovery ([1]; urine): 85

Structure (SMILES): OCc1nnc2n1-c1ccc(Cl)cc1C(c1ccccc1)=NC2 [Hydroxyalprazolam]
- Percent Recovery [1, 8]: 100%
- Percent Recovery [1, 9]: 100%

Structure (SMILES): OCc1nnc2n1-c1ccc(Cl)cc1C(c1ccccc1Cl)=NC2 [Hydroxytriazolam]
- Percent Recovery [1, 8]: 100%
- Percent Recovery [1, 9]: 100%
- approximate minimum detection limit ([2]; Example 7, for drug of group with highest contamination): 12 ng/mL
- approximate minimum detection limit ([2]; Example 10, for drug of group with highest contamination): 15 ng/mL

Structure (SMILES): CN(C)CCCN1c2ccccc2CCc2ccccc21 [Imipramine]
- Percent Recovery [1, 4]: 95%
- Percent Recovery [1, 5]: 82%
- Percent Recovery [1, 6]: 72%
- Percent Recovery ([1]; urine): 84

Structure (SMILES): CCN(CC)C(=O)[C@@H]1C=C2c3cccc4[nH]cc(c34)C[C@H]2N(C)C1 [LSD, lysergic acid diethylamide]
- Percent Recovery ([1]; Example 8, SDVB, urine, wash buffer:acetonitrile (9:1), elution acetone:CHCl3 (1:1)): 90%
- Percent Recovery ([1]; urine): 100

Structure (SMILES): CN[C@@H](C)Cc1ccccc1 [Methamphetamine]
- Percent Recovery ([1]; urine): 96 and 100

Structure (SMILES): CNCCC=C1c2ccccc2COc2ccccc21 [Nordoxepin]
- Percent Recovery [1, 4]: 93%
- Percent Recovery [1, 5]: 91%
- Percent Recovery [1, 6]: 80%
- Percent Recovery ([1]; urine): 84

Structure (SMILES): CNCCC=C1c2ccccc2CCc2ccccc21 [Nortriptyline]
- Percent Recovery [1, 4]: 89%
- Percent Recovery [1, 5]: 93%
- Percent Recovery [1, 6]: 86%
- Percent Recovery ([1]; urine): 87

Structure (SMILES): O=C1Nc2ccc(Cl)cc2C(c2ccccc2)=NC1O (stereo not shown) [Oxazepam]
- Percent Recovery [1, 8]: 41%
- Percent Recovery ([1]; urine): 85

Structure (SMILES): CCCC(C)C1(CC)C(=O)NC(=O)NC1=O (stereo not shown) [Pentobarbital]
- Percent Recovery [1, 3]: 93%
- Percent Recovery [1, 7]: 87%
- Percent Recovery ([1]; urine): 73

Structure (SMILES): CCC1(c2ccccc2)C(=O)NC(=O)NC1=O [Phenobarbital]
- Percent Recovery [1, 3]: 91%

Structure (SMILES): C=CCC1(C(C)CCC)C(=O)NC(=O)NC1=O (stereo not shown) [Secobarbital]
- Percent Recovery [1, 3]: 83%
- Percent Recovery [1, 7]: 100%
- Percent Recovery ([1]; urine): 92

Structure (SMILES): CCCCCc1cc(O)c2c(c1)OC(C)(C)[C@@H]1CCC(C(=O)O)=C[C@@H]21 [THC-COOH]
- Percent Recovery ([1]; Example 1, SDVB, urine, elution ethyl acetate:isopropanol (85:15)): 95%
- recoveries [1]: 91%
- Percent Recovery ([1]; urine): 100
- approximate minimum detection limit ([2]; Example 1): 8 ng/mL

Source: patent US6057161A (priority 1997, dated 2000)
